Patent publication US8841257B2, “Inhibitors of STAT3 and uses thereof” (Board of Regents, The University of Texas System, priority 2009, dated 2014)
For some assays here: For at least one compound, name, drawing or mass did not settle the structure. Some of these results come from one statement about several compounds together.

Sequences of proteins named here, by UniProt entry; tags and fusion partners are left off.
UniProt P40763, whole entry: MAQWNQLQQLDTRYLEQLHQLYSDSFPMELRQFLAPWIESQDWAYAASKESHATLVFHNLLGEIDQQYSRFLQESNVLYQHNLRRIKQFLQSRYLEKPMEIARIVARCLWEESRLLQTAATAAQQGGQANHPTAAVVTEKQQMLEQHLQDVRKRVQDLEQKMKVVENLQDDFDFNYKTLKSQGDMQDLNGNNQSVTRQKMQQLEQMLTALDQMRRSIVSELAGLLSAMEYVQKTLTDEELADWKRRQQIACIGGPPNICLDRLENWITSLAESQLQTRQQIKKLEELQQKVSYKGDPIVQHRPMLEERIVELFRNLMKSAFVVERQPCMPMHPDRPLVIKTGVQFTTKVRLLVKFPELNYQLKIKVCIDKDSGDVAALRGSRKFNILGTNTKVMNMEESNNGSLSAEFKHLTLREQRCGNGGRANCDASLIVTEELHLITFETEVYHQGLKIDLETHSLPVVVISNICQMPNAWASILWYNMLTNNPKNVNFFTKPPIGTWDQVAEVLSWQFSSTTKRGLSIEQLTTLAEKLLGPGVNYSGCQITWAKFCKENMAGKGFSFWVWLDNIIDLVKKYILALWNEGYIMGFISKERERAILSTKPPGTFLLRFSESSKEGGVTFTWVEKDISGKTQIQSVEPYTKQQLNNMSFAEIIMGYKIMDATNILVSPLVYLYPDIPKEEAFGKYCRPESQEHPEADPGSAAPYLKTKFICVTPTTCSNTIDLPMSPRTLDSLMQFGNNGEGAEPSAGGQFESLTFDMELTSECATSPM

Experiments:
STAT3 [1] = molecular target: T1, STAT3 (Homo sapiens, UniProt P40763); experiment: Inhibition of Stat3 tyrosine705 phosphorylation in MDA-MB-468 cells; type: cell-based; set-up: host or cells: MDA-MB-468 breast tumor cells; settings: prodrug in DMSO, 2 h
Method: Inhibition of Stat3 tyrosine705 phosphorylation in MDA-MB-468 cells. MDA-MB-468 breast tumor cells (0.4×10^6) were plated onto 35 mm culture dishes and were allowed to grow overnight. Prodrugs were prepared as 10 mM stock solutions in DMSO and aliquots were added to the culture media to give the correct final concentrations. After 2 h the cells were washed with ice cold phosphate buffered saline. Washed cells were treated with lysis buffer (50 mM Hepes, pH 7.4, 150 mM NaCl, 1.5 mM MgCl2, 1 mM EGTA, 100 mM NaF, 10 mM sodium pyrophosphate, 10% glycerol, 1% Triton X-100, 1 mM PMSF, 1 mM Na3VO4, 10 μg/mL leupeptin and 10 μg/mL aprotinin). Cell-free detergent extracts were centrifuged at 15,000 rpm in a microcentriguge for 30 min at 4° C. and the protein concentrations of the supernatants determined. Aliquots containing 12 μg of protein were separated on 8% SDS-PAGE and were transferred to PVDF filters. The filters were blocked with 5% bovine serum albumin and were probed with pStat3^Y705 antibody followed by secondary antibody, whose signal was detected with an enhanced chemiluminescence kit (ECL, Amersham, Chicago, Ill.). Filters were stripped with stripping buffer (62.5 mM Tris, pH 6.8, 2% SDS, and 0.1 M 2-mercaptoethanol) at 50° C. for 30 min. Filters were then probed with total Stat3 antibody and visualized with chemiluminescence as above.

STAT3 [2] = molecular target: T1, STAT3; experiment: Inhibition of STAT3 phosphorylation in BT20 breast tumor cells (western blot); type: cell-based; set-up: endogenous in cells; host or cells: BT20 breast tumor cells; settings: BT20 time course
Method: Inhibition of STAT3 in BT20 Breast Tumor Cells. General procedure: 35 mm petri dishes were plated with 300,000 BT20 cells in 2 mL RPMI1640 media containing 10% FBS, […], streptomycin, and glutamine. Prodrugs were dissolved in DMSO and were added to the cells with fresh media at varying concentrations. After 2 h the cells were washed with ice cold phosphate buffered saline. Washed cells were treated with lysis buffer (50 mM Hepes, pH 7.4, 150 mM NaCl, 1.5 mM MgCl2, 1 mM EGTA, 100 mM NaF, 10 mM sodium pyrophosphate, 10% glycerol, 1% Triton X-100, 1 mM PMSF, 1 mM Na3VO4, 10 μg/mL leupeptin and 10 μg/mL aprotinin). Cell-free detergent extracts were centrifuged at 15,000 rpm in a microcentriguge for 30 min at 4° C. and the protein concentrations of the supernatants determined. Aliquots containing 12 μg of protein were separated on 8% SDS-PAGE and were transferred to PVDF filters. The filters were blocked with 5% bovine serum albumin and were probed with pStat3^Y705 antibody followed by secondary antibody, whose signal was detected with an enhanced chemiluminescence kit (ECL, Amersham, Chicago, Ill.). […]
Because DMSO is toxic, other formulations were evaluated for potential use in animal models. […] At two hours, cells were lysed and pSTAT3 levels were determined by Western Blot (FIG. 3). […] After two hours, cells were lysed and pSTAT3 levels determined by Western blot. […]

Compound: CCCC[C@H](NC(=O)/C=C(\C)c1ccc(C(F)(F)P(=O)(OCOC(=O)C(C)(C)C)OCOC(=O)C(C)(C)C)cc1)C(=O)N1C[C@H]2CC2[C@H]1C(=O)NCCNC(N)=O (mixture of isomers) [Example 20, (2E)-3-[4-[[bis[(2,2-dimethyl-1-oxopropoxy)methoxy]phosphinyl]difluoromethyl]phenyl]-but-2-enoyl-norleucinyl-(Rac)-methanoprolinyl-2-aminoethylurea]
- inhibition of Tyr705 phosphorylation of Stat3 (potency in words) (STAT3 [1]): potent inhibitor

Compound: C/C(=C\C(=O)N[C@H]1CCc2cccc3c2N(C1=O)[C@H](C(=O)N[C@H](C)CCC(N)=O)C3)c1ccc(OP(=O)(OCOC(=O)C(C)(C)C)OCOC(=O)C(C)(C)C)cc1 [Example 6, (2E)-3-[4-[[bis[(2,2-dimethyl-1-oxopropoxy)methoxy]phosphinyl]oxy]phenyl]-but-2-enoyl-Haic-(R)-4-aminopentamide]
- time up to which STAT3 phosphorylation is inhibited (STAT3 [2]): up to 8 h
